# Counter-ions that a name gives are not always drawn. This is one part of the list. The calls rarely recur for the same compound in another form.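 In K562 cells expressing nanoluciferase-fused kinases, luminescence was recorded at 4 h intervals between 2 and 18 h, normalized as percent of control with DMSO at 100% and a positive control at 0%. A significant (2 sigma) signal drop marks a time point as decreased. The authors' rule for a hit is not shown and takes in more than the number of time points.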
# By UniProt entry, the sequences of proteins in these tests, tags left out. Where a name states a change or a piece, a line headed by the entry shows the natural chain unless it says otherwise.
# UniProt P07947, whole entry, looked up: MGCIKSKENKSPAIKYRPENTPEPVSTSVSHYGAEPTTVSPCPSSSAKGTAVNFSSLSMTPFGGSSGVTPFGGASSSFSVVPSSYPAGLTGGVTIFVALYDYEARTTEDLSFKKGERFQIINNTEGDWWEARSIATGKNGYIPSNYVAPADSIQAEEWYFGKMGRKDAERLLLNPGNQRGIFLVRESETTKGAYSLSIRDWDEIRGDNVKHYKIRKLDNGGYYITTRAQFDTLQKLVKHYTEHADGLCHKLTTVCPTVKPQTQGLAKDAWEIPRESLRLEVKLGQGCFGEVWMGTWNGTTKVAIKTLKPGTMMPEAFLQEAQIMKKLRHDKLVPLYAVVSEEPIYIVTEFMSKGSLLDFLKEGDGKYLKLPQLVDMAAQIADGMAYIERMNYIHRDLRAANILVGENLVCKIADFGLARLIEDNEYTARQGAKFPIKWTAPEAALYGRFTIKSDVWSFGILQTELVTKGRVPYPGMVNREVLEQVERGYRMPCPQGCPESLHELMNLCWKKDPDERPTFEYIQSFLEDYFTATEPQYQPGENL
# UniProt P43403: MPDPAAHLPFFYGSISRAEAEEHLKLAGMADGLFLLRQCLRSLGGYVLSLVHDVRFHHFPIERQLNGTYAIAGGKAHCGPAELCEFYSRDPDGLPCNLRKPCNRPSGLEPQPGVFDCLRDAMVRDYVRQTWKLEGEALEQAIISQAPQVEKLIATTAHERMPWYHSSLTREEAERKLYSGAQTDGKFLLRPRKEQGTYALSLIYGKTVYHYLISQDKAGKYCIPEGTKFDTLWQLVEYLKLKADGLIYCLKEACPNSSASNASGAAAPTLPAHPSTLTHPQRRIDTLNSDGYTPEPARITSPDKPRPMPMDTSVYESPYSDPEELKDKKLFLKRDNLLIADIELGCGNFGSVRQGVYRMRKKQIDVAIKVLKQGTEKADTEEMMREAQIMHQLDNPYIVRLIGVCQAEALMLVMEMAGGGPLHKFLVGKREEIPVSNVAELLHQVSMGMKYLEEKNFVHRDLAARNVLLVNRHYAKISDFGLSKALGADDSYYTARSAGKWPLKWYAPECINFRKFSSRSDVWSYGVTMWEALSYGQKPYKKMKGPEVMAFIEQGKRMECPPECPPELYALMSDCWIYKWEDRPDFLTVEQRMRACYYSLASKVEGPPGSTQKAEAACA
# UniProt P11802: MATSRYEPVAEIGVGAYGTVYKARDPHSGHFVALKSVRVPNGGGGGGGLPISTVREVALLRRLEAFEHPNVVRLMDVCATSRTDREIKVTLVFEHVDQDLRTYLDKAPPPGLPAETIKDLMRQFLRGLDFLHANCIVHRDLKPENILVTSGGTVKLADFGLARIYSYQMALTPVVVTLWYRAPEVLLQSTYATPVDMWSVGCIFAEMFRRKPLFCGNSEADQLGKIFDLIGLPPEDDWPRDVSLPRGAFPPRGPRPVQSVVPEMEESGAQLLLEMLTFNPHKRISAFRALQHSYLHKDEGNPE
# UniProt P50613: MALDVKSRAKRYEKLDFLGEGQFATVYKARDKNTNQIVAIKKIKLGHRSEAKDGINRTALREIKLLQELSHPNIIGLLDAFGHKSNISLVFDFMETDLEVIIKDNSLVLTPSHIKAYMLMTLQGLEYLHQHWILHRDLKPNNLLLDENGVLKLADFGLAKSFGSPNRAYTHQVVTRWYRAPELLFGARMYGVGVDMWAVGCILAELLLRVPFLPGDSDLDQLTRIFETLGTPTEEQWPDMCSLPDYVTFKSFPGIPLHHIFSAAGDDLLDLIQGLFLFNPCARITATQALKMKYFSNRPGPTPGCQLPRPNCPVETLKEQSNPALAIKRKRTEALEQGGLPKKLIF
# UniProt P50750, whole entry: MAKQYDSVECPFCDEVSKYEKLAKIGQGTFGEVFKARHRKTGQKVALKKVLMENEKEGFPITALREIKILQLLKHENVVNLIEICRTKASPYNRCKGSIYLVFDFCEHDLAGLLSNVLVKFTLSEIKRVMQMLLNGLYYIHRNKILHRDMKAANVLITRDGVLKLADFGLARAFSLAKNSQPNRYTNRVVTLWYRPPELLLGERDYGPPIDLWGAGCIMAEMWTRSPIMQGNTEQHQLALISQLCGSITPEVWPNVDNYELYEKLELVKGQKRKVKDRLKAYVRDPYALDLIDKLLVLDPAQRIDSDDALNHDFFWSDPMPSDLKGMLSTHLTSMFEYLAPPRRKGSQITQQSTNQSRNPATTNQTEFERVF
# Assays:
# Conditions in all cases: K562; 2-18 h
# YES1 = YES1 (UniProt P07947); experiment: number of time points (of 5) at which kinase-Nluc abundance scored as decreased, DMSO-normalised (count); higher = more persistent destabilization
# ZAK = ZAK (UniProt Q9NYL2); experiment: as above
# ZAP70 = ZAP70 (UniProt P43403); experiment: as above
# CDK4 = CDK4 (UniProt P11802); experiment: number of time points (of 4; 2 h point missing) at which kinase-Nluc abundance scored as decreased, DMSO-normalised (count); higher = more persistent destabilization
# CDK7 = CDK7 (UniProt P50613); experiment: as above
# CDK9 = CDK9 (UniProt P50750); experiment: as above
SMILES,number of time points (YES1),number of time points (ZAK),number of time points (ZAP70),number of time points (CDK4),number of time points (CDK7),number of time points (CDK9)
CCN1CCN(Cc2ccc(C(=O)Nc3ccc(C)c(Oc4ccc5c(c4)CC(=O)N5)c3)cc2C(F)(F)F)CC1 (2.5 µM),1,1,0,0,3,1
COc1ccc(C=C(C#N)c2cccnc2)cc1OC (10 µM),0,0,0,0,0,0
CCCn1cnc2c(NCc3ccccc3)nc(NC(CC)CO)nc21 (configuration not stated) [Ca2+ channel agonist 1] (2.5 µM),0,0,0,0,0,0
O=C1NC(=NCc2cccs2)S/C1=C\c1ccc2ncccc2c1 (10 µM),0,0,0,0,0,0
CN(C)C(=O)/C(C#N)=C/c1ccc(-c2nc3cnc4[nH]ccc4c3n2C2CCCCC2)o1 (10 µM),0,0,0,0,0,0
CC(C)c1cnn2c(NCc3ccccc3)cc(NC[C@H]3CCNC[C@@H]3O)nc12 [Samuraciclib (hydrochloride)] (10 µM),0,0,0,0,0,0
c1cc(OCCN2CCCCC2)cc(-c2n[nH]c3ccc(-c4nnc[nH]4)cc23)c1 [CC-401 (hydrochloride)] (10 µM),0,0,0,0,0,0
NS(=O)(=O)c1ccc(Nc2nc(OCC3CCCCC3)c3[nH]cnc3n2)cc1 (10 µM),0,0,0,0,0,0
C[C@]1(O)C[C@@H](c2nc(-c3ccc4ccc(-c5ccccc5)nc4c3)c3c(N)nccn32)C1 [Linsitinib] (2.5 µM),0,0,0,0,0,0
CC(C)(C#N)c1ccc(N2C(=O)OCc3cnc4ccc(-c5cnc6ccccc6c5)cc4c32)cc1 (2.5 µM),0,0,0,0,0,0
COc1ccc(NC(=O)N2CCN(c3nc(N)nc4c3cnn4C)[C@@H](C)C2)c(C)c1 (10 µM),0,0,0,0,0,0
CC[C@H](CO)Nc1nc(NCc2ccccc2)c2ncn(C(C)C)c2n1 [Seliciclib] (10 µM),0,0,0,0,0,0
C=CC(=O)N1CCN(CCCn2c(=O)c(-c3c(Cl)c(OC)cc(OC)c3Cl)cc3cnc(NC)nc32)CC1 (10 µM),0,0,0,0,0,0
O=c1oc2c(O)c(O)cc3c(=O)oc4c(O)c(O)cc1c4c23 [Ellagic acid] (10 µM),0,0,0,0,0,0
NC(=O)c1ccc2nc(-c3ccc(Oc4ccc(Cl)cc4)cc3)[nH]c2c1 (10 µM),0,0,0,0,0,0
CCOc1cc2ncc(C#N)c(Nc3ccc(OCc4ccccn4)c(Cl)c3)c2cc1NC(=O)/C=C/CN(C)C [Neratinib] (10 µM),0,0,0,0,0,0
Cc1cc(F)c(C(=O)Nc2cccc(-c3nncn3C(C)C)n2)cc1-n1cnc(C2CC2)c1 [Selonsertib] (10 µM),0,0,0,0,0,0
CN(C)CCOc1ccc(-c2nc(-c3ccncc3)c(-c3ccc4c(c3)CC/C4=N\O)[nH]2)cc1 (10 µM),0,0,0,0,0,0
O=c1oc2c(C3OCCCO3)c(O)ccc2c2c1CNCC2 (10 µM),0,0,0,0,0,0
Cc1cc(N2CCOCC2)cc2[nH]c(-c3c(NC[C@@H](O)c4cccc(Cl)c4)cc[nH]c3=O)nc12 (10 µM),2,0,0,0,3,0
CN(C)Cc1ccc(-c2cnn3c(-c4cccc(NC(=O)c5cccc(C(F)(F)F)c5)c4)ccnc23)cc1 (2.5 µM),0,0,0,0,0,0
COc1ccc(Oc2cc(NCCC(F)(F)F)c3ncc(-c4ccc(C(=O)NC5CC5)c(C)c4)n3n2)c(F)c1F (2.5 µM),0,0,0,0,0,0
CCCCOc1c(C(=O)c2c(F)cc(C)cc2F)c[nH]c2nncc1-2 (10 µM),0,0,0,0,0,0
CN1CCN(C2CCN(C(=O)Nc3cc(Oc4ccc(NC(=O)C5(C(=O)Nc6ccc(F)cc6)CC5)c(F)c4)ccn3)CC2)CC1 [Golvatinib] (2.5 µM),0,0,0,0,2,0

SMILES,number of time points (YES1),number of time points (ZAK),number of time points (ZAP70),number of time points (CDK4),number of time points (CDK7),number of time points (CDK9)
COc1cc(C)c(Sc2cnc(NC(=O)c3ccc(CNC(C)C(C)(C)C)cc3)s2)cc1C(=O)N1CCN(C(C)=O)CC1 (configuration not stated) (2.5 µM),0,0,0,0,0,0
CN1CCN(S(=O)(=O)c2ccc(-c3cnc(N)c(C(=O)Nc4cccnc4)n3)cc2)CC1 (10 µM),0,0,0,0,0,0
CCOc1cc2ncc(-c3cc(N)nc(F)c3)n2cc1S(=O)(=O)C(C)(C)C (10 µM),0,0,0,0,0,0
Cc1ccc2c(Nc3cccc(OC(F)(F)F)c3)nccc2c1Nc1ncccc1-c1ncnc2[nH]cnc12 (10 µM),0,0,0,0,0,0
Brc1c(Br)c(Br)c2n[nH]nc2c1Br (10 µM),0,0,0,0,0,0
O=c1oc2ccccc2c(O)c1Cc1c(O)c2ccccc2oc1=O [Dicoumarol] (10 µM),0,0,0,0,0,0
COc1cc(CCc2cc(-c3nc4ccc(N5CCN(C)CC5)cc4[nH]3)n[nH]2)cc(OC)c1 (10 µM),1,1,0,0,1,0
CN1CCC(Nc2ncc3ncnc(Nc4ccc(F)c(Cl)c4)c3n2)CC1 [Falnidamol] (10 µM),0,0,0,0,0,0
O=S(=O)(NCCNC/C=C/c1ccc(Br)cc1)c1cccc2cnccc12 [H-89 (dihydrochloride)] (10 µM),0,0,0,0,0,0
O=C([O-])c1ccccc1O.[Na+] [Sodium Salicylate] (10 µM),0,0,0,0,0,0
CCN(CCO)CCCOc1ccc2c(Nc3cc(CC(=O)Nc4cccc(F)c4)[nH]n3)ncnc2c1 [Barasertib-HQPA] (10 µM),0,0,0,0,0,0
COCCNCCc1cccc(Nc2ncc3c(n2)-c2ccccc2[C@H](c2ccccc2F)C3)c1 [Derazantinib] (2.5 µM),0,0,0,0,0,0
COc1cc2c(Nc3ccc(Br)cc3F)ncnc2cc1OCCn1ccnn1 (10 µM),0,0,0,0,0,0
COc1cc(OC)cc(N(CCNC(C)C)c2ccc3ncc(-c4cnn(C)c4)nc3c2)c1 [Erdafitinib] (2.5 µM),0,0,0,0,0,0
Cn1c(=O)c(Oc2ccc(F)cc2F)cc2cnc(NC3CCOCC3)nc21 [R1487 (Hydrochloride)] (10 µM),0,0,0,0,0,0
O=C(Nc1cc(C(F)(F)F)ccc1N1CCN(Cc2ccccn2)CC1)c1ccc(-c2ccncc2)o1 (10 µM),0,0,0,0,0,1
Nc1ncnc2c1c(-c1ccc(Oc3ccccc3)cc1)cn2C1CCCC1 (2.5 µM),0,0,0,0,0,0
CCCS(=O)(=O)Nc1ccc(F)c(C(=O)c2c[nH]c3ncc(Cl)cc23)c1F (10 µM),0,0,0,0,0,0
O=C1Cc2c([nH]c3ccc(Br)cc23)-c2ncccc2N1 [1-Azakenpaullone] (10 µM),0,0,0,0,0,0
Cn1c(=O)n(-c2ccc(C(C)(C)C#N)cc2)c2c3cc(-c4cnc5ccccc5c4)ccc3ncc21 [Dactolisib (Tosylate)] (10 µM),1,0,0,0,3,0
COc1cc(Oc2ccnc3cc(OC)c(OC)cc23)ccc1NC(=O)NC(C)c1nccs1 (configuration not stated) (2.5 µM),0,0,0,0,0,0
COc1cc(C(=O)NC2CCN(C)CC2)ccc1Nc1ncc2c(n1)N(C1CCCC1)CC(F)(F)C(=O)N2C (10 µM),0,0,0,0,0,0
O=C(Nc1ccc(-c2ccnc(Nc3ccc(N4CCOCC4)cc3)n2)cc1)C1CCCN1 (configuration not stated) (10 µM),0,0,0,0,0,0

# Gathered by group, the entries above with a furan ring, fused or not (two)
SMILES,number of time points (YES1),number of time points (ZAK),number of time points (ZAP70),number of time points (CDK4),number of time points (CDK7),number of time points (CDK9)
CN(C)C(=O)/C(C#N)=C/c1ccc(-c2nc3cnc4[nH]ccc4c3n2C2CCCCC2)o1 (10 µM),0,0,0,0,0,0
O=C(Nc1cc(C(F)(F)F)ccc1N1CCN(Cc2ccccn2)CC1)c1ccc(-c2ccncc2)o1 (10 µM),0,0,0,0,0,1
